Data from PubChem BioAssay AID624291 (National Center for Advancing Translational Sciences (NCATS), 2012).
Screen size: about 350,000 compounds; about 220 (0.063%) were called active. Inconclusive means that the source gave no clear call. Such entries were picked first, then a sample of the others. Calls come from the whole dose curve; as a rule, active = well fitted activation curve with a large enough effect; inconclusive = small, poorly fitted or top-dose-only effect; inactive = no such curve, though single readings can be large or run the other way. Where the call is inconclusive, the potency comes from a doubtful curve fit.
Potency is the fitted concentration of half-maximal effect.

Test: qHTS for Activators of Integrin-Mediated Alleviation for Muscular Dystrophy; note: nearly all actives have a fitted effect of over 60% in size
Settings: alpha7betagal myoblasts, beta-gal FDG fluorescence, 48 h; series mostly up to 38.3 µM
Procedure, shortened: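 alpha7betagal+/- myoblasts (passage 13, 250/well) treated 48 h at 37C with compounds at 1:260 dilution of DMSO stock. Lysed, then beta-galactosidase activity read as FDG fluorescence (ex 480/em 540) after 30 min, with pre-read for autofluorescence.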
For `COc1ccc([N+](=O)[O-])cc1NC(=O)COC(=O)Cc1cc(OC)c(OC)c(OC)c1`, the Potency was “inactive”. For `S=C1NCN(Cc2ccccc2)CN1`, the Potency was inconclusive: 28.2 µM [activator, single point]. For `CN(C)S(=O)(=O)n1cc(/C=C(\NC(=O)c2ccccc2F)C(=O)NCCCN2CCOCC2)c2ccccc21`, the Potency was inconclusive: 5.01 µM [activator, single point]. With `COC(=O)Cc1cc(OC)c(OC)cc1S(=O)(=O)N(C)C` the Potency was “inactive”. In the case of `Cc1cc2nc(N=C(N)N)nc(C)c2cc1C`, the Potency was inconclusive: 12.6 µM [activator, partial curve, poor fit]. For `CCOc1ccccc1NCc1nnc(-c2ccccc2)o1`, the Potency was inconclusive: 2.24 µM [activator, partial curve, poor fit]. With `COc1ccc(/C=N/NC(=O)c2cc(-c3ccc4c(c3)OCO4)n[nH]2)cc1OC` the Potency was inconclusive: 31.6 µM [activator, single point]. With `COc1ccc(C)cc1NC(=O)c1ccc2c(O)c(S(=O)(=O)c3ccccc3)c(=O)[nH]c2c1` the Potency was inconclusive: 10 µM [activator, partial curve]. With `CN(Cc1ccc([N+](=O)[O-])cc1)c1ccccc1` the Potency was inconclusive: 2.51 µM [activator, single point]. For `COc1cccc(OCC(Cn2c(C)nc3ccccc32)OC(C)=O)c1` (stereo not drawn), the Potency was inconclusive: 5.01 µM [activator, single point]. In the case of `COc1ccc(N2CCN(Cc3nc4scc(-c5ccccc5)c4c(=O)[nH]3)CC2)cc1`, the Potency was “inactive”. In the case of `NS(=O)(=O)c1ccc(CCNC(=O)COC(=O)CCc2c[nH]c3ccccc23)cc1`, the Potency was inconclusive: 2 µM [activator, single point]. For `Cc1ccc(S(=O)(=O)Nc2ccc3c(c2)n(C)c(=O)n3C)cc1`, the Potency was inconclusive: 28.2 µM [activator, single point]. In the case of `COc1ccc([N+](=O)[O-])cc1NC(=O)c1cncc(Br)c1`, the Potency was inconclusive: 10 µM [activator, partial curve, poor fit]. For `CCCN(C(=O)CSc1nc2cc(S(=O)(=O)N(CC)CC)ccc2o1)C1CCS(=O)(=O)C1` (stereo not drawn), the Potency was inconclusive: 5.01 µM [activator, single point]. With `Cn1ccc(-c2ccccc2)n1` the Potency was inconclusive: 17.8 µM [activator, single point]. In the case of `C=CCNC(=S)Nc1c(C(=O)OC)[nH]c2cc(OC)ccc12`, the Potency was inconclusive: 3.55 µM [activator, partial curve, poor fit]. In the case of `c1cc2c3c(cccc3c1)NC(c1ccc3c(c1)OCO3)N2`, the Potency was inconclusive: 20 µM [activator, partial curve, poor fit].
